{"source": "paper PMC12372851", "molecular_target": "T1, 3Flag-Six1b (zebrafish Six1b, Flag-tagged) (zebrafish) (UniProt Q6NZ04)", "T1 sequence": "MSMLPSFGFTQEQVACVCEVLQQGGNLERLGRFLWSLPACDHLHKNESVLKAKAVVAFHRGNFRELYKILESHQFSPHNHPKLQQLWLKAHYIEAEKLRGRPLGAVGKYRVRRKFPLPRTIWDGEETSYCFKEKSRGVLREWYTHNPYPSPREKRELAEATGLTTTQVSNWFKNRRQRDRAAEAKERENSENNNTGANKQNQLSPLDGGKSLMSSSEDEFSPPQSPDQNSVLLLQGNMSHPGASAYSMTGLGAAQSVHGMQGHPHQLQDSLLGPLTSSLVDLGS", "assay": "co-IP; 3HA-Eya2 and 3Flag-Six1b coexpressed in HEK293T cells; lysed in RIPA buffer 36 h after transfection; lysates incubated overnight at 4°C with HA or Flag antibodies, then protein A/G beads; washed with 50 mM tris-HCl (pH 7.4), 150 mM NaCl, 0.5% Triton X-100; Western blotting", "note": "These are yes or no findings as the source states them, for the method shown. In cells and extracts the contact can be indirect. A result given as binding can be weak or reduced; the word gives no strength. Where a sequence is shown, tags or fusion partners need not be part of it.", "data": [{"substance": "3HA-Eya2 (zebrafish Eya2, hemagglutinin-tagged)", "values": [{"measurement": "binding", "value": "binds"}]}]}
